{
  "sequences": {"note": "Amino acid sequences for entries named in this document (tags omitted). A change or cut given only in a name is not applied to a line headed by its entry.", "UniProt Q03431": "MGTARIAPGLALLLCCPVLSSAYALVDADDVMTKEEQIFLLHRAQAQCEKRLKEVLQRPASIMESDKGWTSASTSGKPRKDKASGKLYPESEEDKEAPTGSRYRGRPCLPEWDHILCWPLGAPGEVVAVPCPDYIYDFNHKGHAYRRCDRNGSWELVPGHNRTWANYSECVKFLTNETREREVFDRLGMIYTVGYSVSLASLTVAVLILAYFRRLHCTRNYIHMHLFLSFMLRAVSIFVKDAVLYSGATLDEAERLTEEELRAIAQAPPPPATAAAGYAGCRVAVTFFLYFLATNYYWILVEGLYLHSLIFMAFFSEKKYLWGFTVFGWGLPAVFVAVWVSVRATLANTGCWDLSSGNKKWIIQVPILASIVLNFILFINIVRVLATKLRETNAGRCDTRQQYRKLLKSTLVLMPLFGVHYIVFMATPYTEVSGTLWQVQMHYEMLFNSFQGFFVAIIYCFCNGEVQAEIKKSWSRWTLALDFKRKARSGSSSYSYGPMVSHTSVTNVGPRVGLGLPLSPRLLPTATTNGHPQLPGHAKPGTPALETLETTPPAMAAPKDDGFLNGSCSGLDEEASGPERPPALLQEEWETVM"},
  "source": "PubChem BioAssay AID743266",
  "about": "(National Center for Advancing Translational Sciences (NCATS), 2014)",
  "note": "About 310 (0.076%) of roughly 410,000 compounds were called active. The shares of active, inactive and inconclusive entries below differ from those in the screen. The call rests on the fitted dose curve; in most records, active means well fitted activation curve with a large enough effect; inconclusive means small, poorly fitted or top-dose-only effect, or another doubt; inactive means no such curve, though single readings can be large or run the other way. Potencies beside an inconclusive call are fits to weak or partial responses and may not hold up. Potency means the concentration at half of the fitted maximal effect.",
  "data": [
    {"molecular_target": "Parathyroid hormone/parathyroid hormone-related peptide receptor (Homo sapiens) (UniProt Q03431)", "test": "qHTS for PTHR1 Agonists: Primary Screen; further: nearly all actives have a fitted effect of over 55% in size", "settings": "HEK293 GP2 PTHR1 cells, GloSensor cAMP luminescence, 1 h; activation: at 115 µM (top of the series) unless noted; series mostly up to 115 µM", "how_it_was_run": "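HEK-293-derived GP2 cells expressing PTHR1 and a GloSensor cAMP reporter, 3,000/well, plated overnight, given luciferin plus IBMX (each 0.5 mM as added) for 1 h at 37 °C, then compound for 1 h at 37 °C. Luminescence was read after 15 min at room temperature.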", "values": [
      {"molecule": "C=CCc1cccc2cc(C(=O)Nc3ccccc3C(=O)O)c(=O)oc12", "Potency": "inconclusive: 1.36 µM [activator, full curve, poor fit]"},
      {"molecule": "O=C(O)c1ccc(/C=N/NC(=S)NCc2ccccc2)cc1", "Potency": "inconclusive: 141 µM [activator, single point]"},
      {"molecule": "O=C(N/N=C/c1cccnc1)c1ccc(Cn2cc([N+](=O)[O-])cn2)o1", "Potency": "inconclusive: 89.1 µM [activator, partial curve, poor fit]"},
      {"molecule": "Cc1ccc(Cl)cc1N(C)C(=O)c1cc2c(Cl)nc3ccccc3c2s1", "Potency": "inconclusive: 56.2 µM [activator, partial curve, poor fit]"},
      {"molecule": "CC(C)CNC(=O)C1(C)CCCN1C(=O)c1cccnc1Oc1ccccc1", "note": "(stereo not drawn)", "Potency": "inconclusive: 39.8 µM [activator, partial curve]"},
      {"molecule": "COc1cccc(OC(=O)CSc2nnc(-c3cccs3)o2)c1", "Potency": "inconclusive: 141 µM [activator, single point]"},
      {"molecule": "O=C(CCCSc1nc2ccccc2[nH]1)NC(c1ccccc1)c1ccccc1", "Potency": "inactive"},
      {"molecule": "Cc1nc(CN(C)Cc2nc(Cc3ccccc3Cl)no2)cs1", "Potency": "inconclusive: 126 µM [activator, single point]"},
      {"molecule": "O=C1c2ccccc2/C(=C\\c2ccc3[nH]ccc3c2)N1c1ccccc1", "Potency": "inactive"},
      {"molecule": "C/C(N)=C(/C#N)C(=O)COC(=O)c1ccc(C#N)cc1", "Potency": "inconclusive: 126 µM [activator, single point]"},
      {"molecule": "Cc1csc(-c2cnn(-c3ccccc3)c2NC(=O)c2cccc(F)c2)n1", "Potency": "inconclusive: 4.47 µM [activator, partial curve, poor fit]"},
      {"molecule": "COc1ccc(OCC(=O)Nc2cccc(C(=O)OCc3cc(=O)n4nc(C)sc4n3)c2)cc1", "Potency": "inconclusive: 25.1 µM [activator, single point]"},
      {"molecule": "COc1cccc(NC(=O)CN(C)C(=O)c2cc(-c3ccc(F)cc3)nc3ccccc23)c1", "Potency": "inactive"},
      {"molecule": "CC(NC(=O)/C(=C\\c1ccco1)NC(=O)c1ccccc1Br)C(=O)O", "note": "(stereo not drawn)", "Potency": "inconclusive: 44.7 µM [activator, partial curve, poor fit]"},
      {"molecule": "CCOC(=O)c1ccc(NC(=O)C(=O)NCC2CCCO2)cc1", "note": "(stereo not drawn)", "activation": "inconclusive: -33.4% [activator] [at 57.5 µM]"},
      {"molecule": "Cc1ccccc1NC(=O)CC1NCCNC1=O", "note": "(stereo not drawn)", "Potency": "inconclusive: 100 µM [activator, single point]"},
      {"molecule": "COC(=O)[C@H](CC(C)C)NC(=O)CC[C@H]1O[C@@H](n2ccc(=O)[nH]c2=O)[C@H](O)[C@@H]1O", "activation": "inconclusive: 42.9% [activator]"},
      {"molecule": "COC(=O)c1sc(N2C(=O)c3oc4ccc(C)cc4c(=O)c3C2c2ccc(O)c(OC)c2)nc1C", "note": "(stereo not drawn)", "Potency": "inconclusive: 141 µM [activator, single point]"},
      {"molecule": "CCOc1ccc(CCN2C(=O)C(=O)N([C@@H](Cc3ccc(O)cc3)CN3CCC[C@H]3CN3C(=O)C(=O)NC[C@@H]3Cc3ccc(O)cc3)C[C@@H]2Cc2ccc(O)cc2)cc1", "Potency": "inconclusive: 56.2 µM [activator, partial curve, poor fit]"},
      {"molecule": "Nc1nc(NCCOCCO)nc(NC2CCCCC2)c1[N+](=O)[O-]", "activation": "inconclusive: 34.5% [activator]"},
      {"molecule": "Cc1ccc(-c2c3c(=O)n(C)c(=O)n(C)c3cn2N2CCOCC2)cc1", "Potency": "inactive"},
      {"molecule": "O=C(Nc1ccc(F)c(Cl)c1)NC1CC1", "Potency": "inconclusive: 25.1 µM [activator, partial curve]"},
      {"molecule": "CCCOc1ccc(NC(=O)CC2C(=O)Nc3ccccc3N2CC(=O)N2CCCC2)cc1", "note": "(stereo not drawn)", "Potency": "inconclusive: 44.7 µM [activator, partial curve, poor fit]"},
      {"molecule": "Cc1ccc(SCC(=O)Nc2cccc(C)c2)cc1", "Potency": "inconclusive: 15.8 µM [activator, partial curve, poor fit]"},
      {"molecule": "CCn1cc(C(=O)NCCc2ccccc2)c(=O)c2cc(S(=O)(=O)N3CCc4ccccc4C3)ccc21", "Potency": "inactive"},
      {"molecule": "COc1ccc([N+](=O)[O-])cc1N(CC(=O)N1CCCC1)S(C)(=O)=O", "Potency": "inconclusive: 100 µM [activator, single point]"},
      {"molecule": "Cc1ccc2[nH]c(CSc3nnc(NC(=O)COc4ccc(F)cc4)s3)cc(=O)c2c1", "Potency": "inactive"},
      {"molecule": "CCOc1ccc(CNC(=O)C2CCN(S(=O)(=O)N3CCCC3)CC2)cc1OC", "activation": "inconclusive: 60.1% [activator]"},
      {"molecule": "COc1cc(Cl)c(C)cc1NC(=O)c1nn(C)c2c1CSc1ccccc1-2", "Potency": "inactive"},
      {"molecule": "CN(Cc1ccsc1)C(=O)CCc1nnc(Cc2c[nH]c3ccccc23)o1", "Potency": "inactive"},
      {"molecule": "C=C1C(=O)O[C@@]23[C@H]1CC[C@@H](C)[C@@H]2CC[C@@]1(C)O[C@@H]31", "activation": "inconclusive: -90.6% [activator]"},
      {"molecule": "NS(=O)(=O)c1ccc(N/N=C/c2ccc(C(=O)O)cc2)c([N+](=O)[O-])c1", "Potency": "inactive"},
      {"molecule": "CC1CCCCN1CCCNC(=O)c1ccc(Br)cc1", "note": "(stereo not drawn)", "Potency": "inactive"},
      {"molecule": "COc1ccc(C(=O)c2nc3c(n2O)CCCC3)cc1OC", "Potency": "inactive"},
      {"molecule": "COC(=O)Cc1ccc(NC(=S)NCc2ccco2)cc1", "Potency": "inconclusive: 35.5 µM [activator, partial curve, poor fit]"},
      {"molecule": "NNC(=O)COc1cccc(C(F)(F)F)c1", "Potency": "inconclusive: 126 µM [activator, single point]"},
      {"molecule": "Cc1ccccc1NS(=O)(=O)c1cc(C(=O)NCc2ccco2)ccc1C", "Potency": "inconclusive: 0.251 µM [activator, full curve, poor fit]"},
      {"molecule": "Cc1nc(=S)c2ccccc2[nH]1", "Potency": "inactive"},
      {"molecule": "O=C(NCCc1ccc(F)cc1)c1ccncc1", "Potency": "inconclusive: 28.2 µM [activator, partial curve, poor fit]"},
      {"molecule": "CCOC(=O)c1ccc(Nc2ncnc3ccc(C)cc23)cc1", "Potency": "inactive"},
      {"molecule": "CC(C)N(CCCNC(=O)c1nn(C)c2c1CS(=O)(=O)c1ccccc1-2)Cc1ccccc1", "Potency": "inconclusive: 63.1 µM [activator, partial curve, poor fit]"},
      {"molecule": "O=c1oc2ccccc2cc1-c1cn2cc(Cc3ccc(Br)cc3)sc2n1", "Potency": "inconclusive: 35.5 µM [activator, single point]"},
      {"molecule": "CC(/C=N/Nc1nc(C)cc(=O)[nH]1)=C\\c1ccccc1", "activation": "inconclusive: 36.8% [activator]"}
    ]}
  ]
}
